Test results reported in article PMC7819943, “Rice protein-binding microarrays: a tool to detect cis-acting elements near promoter regions in rice”.
Some of the results follow.

Target: T1, OsSMF1 (Oryza sativa, UniProt Q6ZLB0 1-436)
T1 sequence: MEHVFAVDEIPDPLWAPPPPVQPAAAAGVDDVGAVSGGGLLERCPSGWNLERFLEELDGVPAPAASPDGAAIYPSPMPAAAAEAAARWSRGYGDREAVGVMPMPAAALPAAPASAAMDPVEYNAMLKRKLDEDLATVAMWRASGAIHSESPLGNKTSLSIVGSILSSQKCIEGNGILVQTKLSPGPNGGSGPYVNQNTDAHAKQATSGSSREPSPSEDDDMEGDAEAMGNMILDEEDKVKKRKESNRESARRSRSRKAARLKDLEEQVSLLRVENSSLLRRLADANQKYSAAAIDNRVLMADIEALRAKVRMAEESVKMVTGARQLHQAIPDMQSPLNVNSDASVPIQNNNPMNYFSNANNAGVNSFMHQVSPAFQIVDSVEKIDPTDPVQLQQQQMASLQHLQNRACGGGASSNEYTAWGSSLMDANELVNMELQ
Assay: protein-binding microarray (RPBM); PBS, 2% BSA, 51.3 ng/ul salmon testes DNA, 50 uM zinc acetate, 200 nM TF, 25 C, 1 h; high values mean tight binding
Details: protein: recombinant; tags: N-terminal polyhistidine and DsRed monomer fusion (pET32a); chain copies: 2; label: CyDye5-dUTP incorporated in the synthesized complementary strand; 3' TTTTT single-stranded linker to array surface; dsDNA, one strand shown
In short: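 The binding signal is fluorescence intensity per feature, in arbitrary units, read on an Axon 4000B scanner. Polyhistidine- and DsRed-tagged transcription factors (N-terminal fusions) from E. coli BL21-CodonPlus were purified on Ni–NTA and applied at 200 nM for 1 h at 25 °C to a double-stranded, BSA-blocked custom Agilent array in buffer with 50 µM zinc acetate.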

Sequence	binding signal
AATTAGTGCATAAACCGCAGGTTTGACTCACATGTTATATCGGAGTCACCTAGTGCAG	3360 fluorescence intensity (a.u.)
TAAATGAAACTTTTGTCTTGAGTTAACACCGTCATCTTGCCGGAGTCACCTAGTGCAG	3480 fluorescence intensity (a.u.)
GGTAACTTCTGCATGAGCCCGTGATGTGTGGGGCCCACATCGGAGTCACCTAGTGCAG	3450 fluorescence intensity (a.u.)
TTCATGTGGCTGCTCTTCCTGAGCCATAGGATCGGCGGAACGGAGTCACCTAGTGCAG	35000 fluorescence intensity (a.u.)
GACTCGAATCCGTGACACGTAATGTGCCTTTCACGTGCCCCGGAGTCACCTAGTGCAG	13500 fluorescence intensity (a.u.)
TAGCAGATCTATTTCTTGACACGTAACCTTACTTTCCATCCGGAGTCACCTAGTGCAG	12300 fluorescence intensity (a.u.)
GCATGTGATTAATCGGTGATTATGTCTTAATGGAAGGAAACGGAGTCACCTAGTGCAG	3890 fluorescence intensity (a.u.)
ATGTCTCTGCCATGGCACCATGGCAAGATGCACATATGCACGGAGTCACCTAGTGCAG	3930 fluorescence intensity (a.u.)
CACGACCCCACGTGCCAGTGAGCTGGACGCGCATCGTCTTCGGAGTCACCTAGTGCAG	7410 fluorescence intensity (a.u.)
TCGATCTGCACATGTGCACGCGCATGTGTCGTCGGCTTAGCGGAGTCACCTAGTGCAG	3230 fluorescence intensity (a.u.)
CACTACCCTTCACCTTCATCACTAATATACAGTGCCAAAACGGAGTCACCTAGTGCAG	6330 fluorescence intensity (a.u.)
ACAAATTTATCAGCGTCAGAATCAAGCAAAGGAAATTGGACGGAGTCACCTAGTGCAG	3370 fluorescence intensity (a.u.)
TCGTTTTAATTGACCACGTACTCAATCCGGTACTCTCCTTCGGAGTCACCTAGTGCAG	5820 fluorescence intensity (a.u.)
GAATTGCCGCCACGCCGATCCTTTGCGCCACAGAGTAATACGGAGTCACCTAGTGCAG	28900 fluorescence intensity (a.u.)
GGTTGTGTGGTGGTATAGCCTATAGGTCTGGATTAGTTGGCGGAGTCACCTAGTGCAG	20800 fluorescence intensity (a.u.)
AGGACGTAGGAGGGCTTCCTGCTCTGCTGGTGACGTGCCTCGGAGTCACCTAGTGCAG	12400 fluorescence intensity (a.u.)
CCCGTTGCAAATAACTGTGTCAGCGCCCACGTCATCACCGCGGAGTCACCTAGTGCAG	25900 fluorescence intensity (a.u.)
GGTCCGACCTTTTATTTTGCTTCCAAGTGCCACATCACCGCGGAGTCACCTAGTGCAG	17600 fluorescence intensity (a.u.)
AGAAAATGTGGAATGACGCAAATGCCCTTCTGCCTCCTCGCGGAGTCACCTAGTGCAG	5440 fluorescence intensity (a.u.)
GTGACGCCTGGCGGCGAGCTCCGGCGCCGGCCACCTCACCCGGAGTCACCTAGTGCAG	3800 fluorescence intensity (a.u.)
TTATAGATTTCGTTAGGTCTACATGTCACATCGGATACGACGGAGTCACCTAGTGCAG	4590 fluorescence intensity (a.u.)

Exported as a markdown table: entries from further up.

| Sequence | binding signal |
| --- | --- |
| AATTAGTGCATAAACCGCAGGTTTGACTCACATGTTATATCGGAGTCACCTAGTGCAG | 3360 fluorescence intensity (a.u.) |
| TAAATGAAACTTTTGTCTTGAGTTAACACCGTCATCTTGCCGGAGTCACCTAGTGCAG | 3480 fluorescence intensity (a.u.) |
| GGTAACTTCTGCATGAGCCCGTGATGTGTGGGGCCCACATCGGAGTCACCTAGTGCAG | 3450 fluorescence intensity (a.u.) |
| GACTCGAATCCGTGACACGTAATGTGCCTTTCACGTGCCCCGGAGTCACCTAGTGCAG | 13500 fluorescence intensity (a.u.) |
| TCGATCTGCACATGTGCACGCGCATGTGTCGTCGGCTTAGCGGAGTCACCTAGTGCAG | 3230 fluorescence intensity (a.u.) |
| CACTACCCTTCACCTTCATCACTAATATACAGTGCCAAAACGGAGTCACCTAGTGCAG | 6330 fluorescence intensity (a.u.) |
| ACAAATTTATCAGCGTCAGAATCAAGCAAAGGAAATTGGACGGAGTCACCTAGTGCAG | 3370 fluorescence intensity (a.u.) |
| TCGTTTTAATTGACCACGTACTCAATCCGGTACTCTCCTTCGGAGTCACCTAGTGCAG | 5820 fluorescence intensity (a.u.) |
| GAATTGCCGCCACGCCGATCCTTTGCGCCACAGAGTAATACGGAGTCACCTAGTGCAG | 28900 fluorescence intensity (a.u.) |
| GGTTGTGTGGTGGTATAGCCTATAGGTCTGGATTAGTTGGCGGAGTCACCTAGTGCAG | 20800 fluorescence intensity (a.u.) |
| AGGACGTAGGAGGGCTTCCTGCTCTGCTGGTGACGTGCCTCGGAGTCACCTAGTGCAG | 12400 fluorescence intensity (a.u.) |
| GGTCCGACCTTTTATTTTGCTTCCAAGTGCCACATCACCGCGGAGTCACCTAGTGCAG | 17600 fluorescence intensity (a.u.) |
| GTGACGCCTGGCGGCGAGCTCCGGCGCCGGCCACCTCACCCGGAGTCACCTAGTGCAG | 3800 fluorescence intensity (a.u.) |

The list goes on:

Sequence	binding signal
CACCACACACCTGCCGGCCCATCTGCCTACGCGTCCTGTACGGAGTCACCTAGTGCAG	3380 fluorescence intensity (a.u.)
CGAAATAAGTAATTTACAGGGCTTTCTCTCTCTCGCTCACCGGAGTCACCTAGTGCAG	64400 fluorescence intensity (a.u.)
GCCGTTAGTGCCACGTGGCGCCTTCCCATTCGACCGCCGCCGGAGTCACCTAGTGCAG	37400 fluorescence intensity (a.u.)
AGTCGGCAACAGCAGAAGTCCACGTACTGCTCAAGGGACACGGAGTCACCTAGTGCAG	3240 fluorescence intensity (a.u.)
GGGTTGGGTGGGTGCTGTAATATGGGGAGATACTGACTACCGGAGTCACCTAGTGCAG	3450 fluorescence intensity (a.u.)
CCAATATACGTGGGCCGCATGTAAGCCTAAGTGGGCCGTCCGGAGTCACCTAGTGCAG	3370 fluorescence intensity (a.u.)
CTCTCTACTCTCGCCTGACATGAGCTGACATGGCATGCCACGGAGTCACCTAGTGCAG	9830 fluorescence intensity (a.u.)
GGGTAAGGGTGCTCCAGATTCTTAGGATATCTGATATCTTCGGAGTCACCTAGTGCAG	3190 fluorescence intensity (a.u.)
CCTAGCTGCCCCTCGTGTCCACGTCCTTCAAAATGGTTAACGGAGTCACCTAGTGCAG	5120 fluorescence intensity (a.u.)
AGCTCTGCTACATGGTTACGTGTAGCCACAGGTCGTGCTACGGAGTCACCTAGTGCAG	5190 fluorescence intensity (a.u.)
CGGCCGCCATGGAGGCTTATATTGAGATGGAGAGAGGATACGGAGTCACCTAGTGCAG	25800 fluorescence intensity (a.u.)
CCTAACCGCCCAGCAGAGGCAAAGTGTGGTCGAAACCTAGCGGAGTCACCTAGTGCAG	49500 fluorescence intensity (a.u.)
GGACCCAGAGCGTACATGCATACCCCTGTCACGGTGGGGCCGGAGTCACCTAGTGCAG	4690 fluorescence intensity (a.u.)
GGTTTATAATCTGAGTCATATGAATGCTCAAGCTGGGAACCGGAGTCACCTAGTGCAG	6820 fluorescence intensity (a.u.)
CGGACAGCCATCTCCCATCCAGTCACATCCACCCAATCAACGGAGTCACCTAGTGCAG	5500 fluorescence intensity (a.u.)
AGCCCATCCCTTCCCTTCTGCATCGTACGGCCAGGATCTCCGGAGTCACCTAGTGCAG	3410 fluorescence intensity (a.u.)
AAAATATGACTATCAAAAGTAGATGGAGGGAGTATTTTGGCGGAGTCACCTAGTGCAG	14700 fluorescence intensity (a.u.)
CCGGCGCATCCGTGCATGGTAATCACGTGCACCCCACGCCCGGAGTCACCTAGTGCAG	3300 fluorescence intensity (a.u.)
ATGTCCAGATAAGAGCTCCACCTCTGACTCACACACACATCGGAGTCACCTAGTGCAG	3940 fluorescence intensity (a.u.)
GAAGAAAATTCTCTCACACGTCGACTATAAATACCCCTCTCGGAGTCACCTAGTGCAG	6470 fluorescence intensity (a.u.)
TCGTGCTCCCTTGTCAAAGTCCAATACGCCGGAGCTCTCACGGAGTCACCTAGTGCAG	19700 fluorescence intensity (a.u.)
